Measured values reported in the supplement of paper PMC10849652.
This is one part of the list. Residues, ends and D or L forms follow the SMILES beside them. *: point of attachment. Cbz = O=C(OCc1ccccc1)*

Sequences of proteins named here, by UniProt entry; tags and fusion partners are left off. A change or cut given only in a name is not applied to a line headed by its entry.
UniProt P49591: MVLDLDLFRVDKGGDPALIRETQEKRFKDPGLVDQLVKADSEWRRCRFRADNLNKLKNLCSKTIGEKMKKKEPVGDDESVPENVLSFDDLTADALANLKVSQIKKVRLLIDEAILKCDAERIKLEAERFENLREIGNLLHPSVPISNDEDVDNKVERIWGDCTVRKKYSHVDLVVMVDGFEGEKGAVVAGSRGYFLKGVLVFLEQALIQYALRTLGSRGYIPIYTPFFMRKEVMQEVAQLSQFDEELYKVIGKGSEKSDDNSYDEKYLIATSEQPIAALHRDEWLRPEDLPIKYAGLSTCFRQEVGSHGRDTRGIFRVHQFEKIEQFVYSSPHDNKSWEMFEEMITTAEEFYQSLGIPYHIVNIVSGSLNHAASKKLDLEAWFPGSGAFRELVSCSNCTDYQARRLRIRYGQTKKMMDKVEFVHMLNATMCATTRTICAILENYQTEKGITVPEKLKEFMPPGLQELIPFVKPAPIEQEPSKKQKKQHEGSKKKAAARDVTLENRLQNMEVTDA

How the values were obtained:
Experiment in all cases: log2 fold change, soluble protein after heating vs DMSO (PISA); higher = thermal stabilisation; K562 cells, 10 uM, 30 min; active = over 0.2 and 3.5 SD of the protein, either way, in both replicates (recomputed)
erlotinib = compound: C#Cc1cccc(Nc2ncnc3cc(OCCOC)c(OCCOC)cc23)c1 [erlotinib]
How it was run: (§1)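 K562 cells at 2×10^6 cells/mL were exposed to 10 μM compound for 30 min, then aliquots were heated for 3 min across 48°C-58°C, pooled, and extracted in PBS containing 0.5% NP-40 at 4°C. The supernatant after 21,000xg for 90 min was taken as soluble protein and measured by TMTpro 16plex LC-MS/MS with channel sums equalised. Thermal stability is reported relative to control samples, with values from duplicates. Fold changes are given on a log2 scale.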

[1] = compound: C/C(=N\NC(=O)C1=CC(=CC=C1)S(=O)(=O)N2CCOCC2)/C3=C(C=CC(=C3)Cl)O
How it was run: as §1

[2] = compound: C1=CC(=C(C=C1Cl)C2=NC3=NC=CN=C3C(=N2)NC4=CC=NC=C4)F
How it was run: as §1

[3] = compound: C1=CC(=CC=C1C2=NC3=C(N2)C=C(C=C3)C(=O)N)OC4=CC=C(C=C4)Cl
How it was run: as §1

[4] = compound: C1=CC2=C(C=CC(=C2)/C=C\3/C(=O)NC(=NCC4=CC=CS4)S3)N=C1
How it was run: as §1

[5] = compound: C1=CC2=NC=CN=C2C=C1/C=C/3\C(=O)NC(=O)S3
How it was run: as §1

[6] = compound: C1=CC=C(C=C1)C2=NC(=C(N2)C3=CC=NC=C3)C4=CC(=C(C=C4)Cl)O
How it was run: as §1

[7] = compound: C1=CC=C(C=C1)[C@H](COC2=CC3=C(C=C2)NC(=O)N3)NC(=O)C4=CC=CN(C4=O)CC5=CC(=C(C=C5)F)F
How it was run: as §1

[8] = compound: C1=CC=C2C(=C1)C3=NNC4=CC=CC(=C43)C2=O
How it was run: as §1

[9] = compound: C1CCN(C1)C(=O)NC2=CC=CC(=C2)NC3=NC=C(C(=N3)NCCC4=CN=CN4)Br
How it was run: as §1

[10] = compound: C1CN(CCC1(CC2=CC=C(C=C2)Cl)N)C3=NC=NC4=C3C=CN4
How it was run: as §1

IRAK-1-4 Inhibitor I = compound: C1COCCN1CCN2C3=CC=CC=C3N=C2NC(=O)C4=CC(=CC=C4)[N+](=O)[O-] [IRAK-1-4 Inhibitor I]
How it was run: as §1

ibrutinib = compound: C=CC(=O)N1CCC[C@@H](n2nc(-c3ccc(Oc4ccccc4)cc3)c3c(N)ncnc32)C1 [ibrutinib]
How it was run: as §1

[11] = compound: CC(=O)c1cnc2ccc(-c3cc(Cl)c(O)c(Cl)c3)nc2c1N[C@H]1CC[C@H](CN(C)C)CC1
How it was run: as §1

ralimetinib = compound: CC(C)(C)Cn1c(N)nc2ccc(-c3[nH]c(C(C)(C)C)nc3-c3ccc(F)cc3)nc21 [ralimetinib]
How it was run: as §1

[12] = compound: CC(C)(O)CC(=O)NCCn1ccc2ncnc(Nc3ccc(Oc4cccc(C(F)(F)F)c4)c(Cl)c3)c21
How it was run: as §1

[13] = compound: CC(C)C1=C2N=C(C=C(N2N=C1)NCC3=CC=CC=C3)NCCCCCCN
How it was run: as §1

[14] = compound: CC(C)C[C@@H](C=O)NC(=O)[C@H](CC(C)C)NC(=O)[C@H](CC(C)C)NC(=O)OCc1ccccc1
How it was run: as §1

pinometostat = compound: CC(C)N(C[C@H]1O[C@@H](n2cnc3c(N)ncnc32)[C@H](O)[C@@H]1O)[C@H]1C[C@@H](CCc2nc3cc(C(C)(C)C)ccc3[nH]2)C1 [pinometostat]
How it was run: as §1

[15] = compound: CC1=C(C(CC(=O)N1)C2=CC=C(C=C2)C(F)(F)F)C(=O)NC3=C(C=C4C(=C3)C=NN4)F
How it was run: as §1

[16] = compound: CC1=C(C2=C(C=C1)C(=O)C3=CC=CC=C3N2CCCN)C
How it was run: as §1

[17] = compound: CC1=C(C=C(C=C1)NC(=O)C2=CC(=CC=C2)C(C)(C)C#N)NC3=CC4=C(C=C3)N=CN(C4=O)C
How it was run: as §1

[18] = compound: CC1=C(C=C(C=C1)NC(=O)C2=CC(=CC=C2)N(C)C)NC(=O)C3=CC=C(C=C3)O
How it was run: as §1

[19] = compound: CC1=C(SC2=C1C(=N[C@H](C3=NN=C(N32)C)CC(=O)N)C4=CC=C(C=C4)Cl)C
How it was run: as §1

[20] = compound: CC1=C2C(=CC=C1)N=C(N(C2=O)C3=CC=CC=C3C)CN4C=NC5=C(N=CN=C54)N
How it was run: as §1

[21] = compound: CC1=CC=C(C=C1)SC2=C3C=C(SC3=CN=C2)C(=O)N
How it was run: as §1

[22] = compound: CC1=NC(=CC=C1)C2=C(N=C(N2)C(C)(C)C)C3=CC4=NC=CN=C4C=C3
How it was run: as §1

Nexturastat A = compound: CCCCN(Cc1ccc(C(=O)NO)cc1)C(=O)Nc1ccccc1 [Nexturastat A]
How it was run: as §1

vemurafenib = compound: CCCS(=O)(=O)Nc1ccc(F)c(C(=O)c2c[nH]c3ncc(-c4ccc(Cl)cc4)cc23)c1F [vemurafenib]
How it was run: as §1

[23] = compound: CCCS(=O)(=O)Nc1ccc(F)c(C(=O)c2c[nH]c3ncc(Cl)cc23)c1F
How it was run: as §1

[24] = compound: CCCc1cc(C)[nH]c(=O)c1CNC(=O)c1cc(-c2ccnc(N3CCN(C)CC3)c2)cc2c1cnn2C(C)C
How it was run: as §1

givinostat = compound: CCN(CC)Cc1ccc2cc(COC(=O)Nc3ccc(C(=O)NO)cc3)ccc2c1 [givinostat]
How it was run: as §1

barasertib = compound: CCN(CCCOc1ccc2c(Nc3cc(CC(=O)Nc4cccc(F)c4)[nH]n3)ncnc2c1)CCOP(=O)(O)O [barasertib]
How it was run: as §1

[25] = compound: CC[C@@H]1C(=O)N(C)c2cnc(Nc3ccc(C(=O)NC4CCN(C)CC4)cc3OC)nc2N1C1CCCC1
How it was run: as §1

volasertib = compound: CC[C@@H]1C(=O)N(C)c2cnc(Nc3ccc(C(=O)N[C@H]4CC[C@H](N5CCN(CC6CC6)CC5)CC4)cc3OC)nc2N1C(C)C [volasertib]
How it was run: as §1

[26] = compound: CC[C@H](C)N1C=C(C2=C(C=C(C=C21)C3=CN=C(C=C3)N4CCNCC4)C(=O)NCC5=C(C=C(NC5=O)C)C)C
How it was run: as §1

epoxomicin = compound: CC[C@H](C)[C@@H](C(=O)N[C@@H]([C@@H](C)O)C(=O)N[C@@H](CC(C)C)C(=O)[C@]1(CO1)C)NC(=O)[C@H]([C@@H](C)CC)N(C)C(=O)C [epoxomicin]
How it was run: as §1

[27] = compound: CCn1c(C(=O)N(C2CC2)C2CC2)cc2c3c(ncn3C)c(Nc3cc(C)n(C)n3)nc21
How it was run: as §1

[28] = compound: CCn1cc(-c2ccnc3[nH]c(-c4cccc(CN(C)C)c4)cc23)c(-c2ccc(NC(=O)N(C)C)cc2)n1
How it was run: as §1

[29] = compound: CN(C)CC(=O)Nc1ccc2[nH]c(=O)c3ccccc3c2c1
How it was run: as §1

rosiglitazone = compound: CN(CCOC1=CC=C(C=C1)C[C@H]2C(=O)NC(=O)S2)C3=CC=CC=N3 (racemic) [rosiglitazone]
How it was run: as §1

[30] = compound: CN1C2=C(C3=C1C(=O)N(N=C3)CC4=CC(=CC=C4)N)SC(=C2)S(=O)C
How it was run: as §1

[31] = compound: CN1CCC(CNc2ccc3ncc(-c4cccc(OC(F)(F)F)c4)n3n2)CC1
How it was run: as §1

saracatinib = compound: CN1CCN(CCOc2cc(OC3CCOCC3)c3c(Nc4c(Cl)ccc5c4OCO5)ncnc3c2)CC1 [saracatinib]
How it was run: as §1

sotrastaurin = compound: CN1CCN(c2nc(C3=C(c4c[nH]c5ccccc45)C(=O)NC3=O)c3ccccc3n2)CC1 [sotrastaurin]
How it was run: as §1

alvocidib = compound: CN1CC[C@H](c2c(O)cc(O)c3c(=O)cc(-c4ccccc4Cl)oc23)[C@H](O)C1 [alvocidib]
How it was run: as §1

Tubastatin A = compound: CN1CCc2c(c3ccccc3n2Cc2ccc(C(=O)NO)cc2)C1 [Tubastatin A]
How it was run: as §1

[32] = compound: CNC(=O)C1=CC=CC=C1NC2=NC(=NC=C2Cl)NC3=C(C=C(C=C3)N4CCOCC4)OC
How it was run: as §1

Measured: log2 fold change

SARS (UniProt P49591)
inactive: erlotinib 0.008 | [1] 0.013 | [2] 0.046 | [3] -0.02 | [4] -0.017 | [5] -0.009 | [6] 0.038 | [7] 0.013 | [8] 0.014 | [9] 0.019 | [10] 0.009 | IRAK-1-4 Inhibitor I 0.009 | ibrutinib 0.015 | [11] 0.031 | ralimetinib -0.049 | [12] -0.015 | [13] 0.018 | [14] -0.006 | pinometostat -0.067 | [15] 0.001 | [16] -0.015 | [17] 0.008 | [18] -0.025 | [19] 0.024 | [20] 0.019 | [21] 0.011 | [22] 0.045 | Nexturastat A -0.075 | vemurafenib 0.01 | [23] 0.023 | [24] -0.02 | givinostat -0.011 | barasertib -0.021 | [25] -0.015 | volasertib 0.035 | [26] -0.01 | epoxomicin 0.033 | [27] 0.003 | [28] 0.019 | [29] 0.006 | rosiglitazone 0.02 | [30] -0.063 | [31] -0.03 | saracatinib 0.024 | sotrastaurin 0.01 | alvocidib -0.017 | Tubastatin A 0.004 | [32] 0.022
